Results published in paper PMC11170094.
Results are given in words; binding and its absence hold for the method and conditions named. In cells and extracts the contact can be indirect. Some binding calls cover weakened binding; strength is not graded here.

Amino acid sequences for entries named in this document (tags omitted).
UniProt P49841: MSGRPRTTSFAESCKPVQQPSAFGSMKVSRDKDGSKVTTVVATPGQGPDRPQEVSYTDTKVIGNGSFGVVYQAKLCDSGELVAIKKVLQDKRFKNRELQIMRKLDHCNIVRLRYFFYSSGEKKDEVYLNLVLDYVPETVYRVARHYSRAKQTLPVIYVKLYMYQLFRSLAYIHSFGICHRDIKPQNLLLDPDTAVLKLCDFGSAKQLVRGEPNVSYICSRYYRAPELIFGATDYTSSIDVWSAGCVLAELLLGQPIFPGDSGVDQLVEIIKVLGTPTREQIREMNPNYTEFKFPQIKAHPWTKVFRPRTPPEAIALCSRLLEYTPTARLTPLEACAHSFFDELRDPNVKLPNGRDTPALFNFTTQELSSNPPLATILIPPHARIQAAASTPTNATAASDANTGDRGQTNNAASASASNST

Biological target: T1, FOXM1 (human (in ovarian cancer cells)) (UniProt Q08050)
T1 sequence: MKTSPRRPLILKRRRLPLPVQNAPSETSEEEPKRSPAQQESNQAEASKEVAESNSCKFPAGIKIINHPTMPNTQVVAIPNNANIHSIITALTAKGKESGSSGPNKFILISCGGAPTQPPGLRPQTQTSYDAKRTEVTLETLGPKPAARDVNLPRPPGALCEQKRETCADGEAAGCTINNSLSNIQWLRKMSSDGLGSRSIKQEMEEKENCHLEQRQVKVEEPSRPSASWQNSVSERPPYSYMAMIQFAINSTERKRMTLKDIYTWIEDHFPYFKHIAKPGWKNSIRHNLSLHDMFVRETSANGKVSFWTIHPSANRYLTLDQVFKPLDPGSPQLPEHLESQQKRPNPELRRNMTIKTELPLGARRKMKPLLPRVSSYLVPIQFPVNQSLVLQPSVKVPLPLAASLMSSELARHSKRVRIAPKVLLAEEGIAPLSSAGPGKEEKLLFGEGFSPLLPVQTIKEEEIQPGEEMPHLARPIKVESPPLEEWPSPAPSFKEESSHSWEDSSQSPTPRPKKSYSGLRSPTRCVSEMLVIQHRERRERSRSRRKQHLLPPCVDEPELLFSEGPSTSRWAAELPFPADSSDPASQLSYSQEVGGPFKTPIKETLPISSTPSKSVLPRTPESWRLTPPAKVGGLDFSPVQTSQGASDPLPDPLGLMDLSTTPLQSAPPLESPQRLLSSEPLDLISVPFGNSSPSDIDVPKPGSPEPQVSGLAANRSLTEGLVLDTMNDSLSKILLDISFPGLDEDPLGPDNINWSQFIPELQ
Test: co-IP; co-immunoprecipitation from ovarian cancer cells; bait, antibodies and cell line not told in the text (Fig. S4B, C)

binding: binds
Substance: GSK3β (from UniProt P49841 1-420) (enzyme)
